In article PMC13626733, “Molecular basis of high-torque transmission of the Vibrio polar flagellar motor” (Protein & Cell, 2026) one finds binding data, which are given here for 5 molecules.

Holding throughout (experiment): cryo-EM structure; polar flagellar motor-hook complex purified as a whole from V. alginolyticus KK148 ΔflgL; local refinements of the LPHT ring, hook, rod, export apparatus and MS ring; LPHT ring particles also obtained by disassembling the complex at reduced salt; both purified
Test [1] concerns the target T1, FlgC (Vibrio alginolyticus (endogenous in strain KK148 ΔflgL)).
T1 sequence: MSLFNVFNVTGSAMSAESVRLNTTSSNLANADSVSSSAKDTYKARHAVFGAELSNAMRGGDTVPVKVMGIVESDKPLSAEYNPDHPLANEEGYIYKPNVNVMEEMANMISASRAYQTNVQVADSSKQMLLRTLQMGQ

In test [2] the target is T2, FliF (Vibrio alginolyticus (endogenous in strain KK148 ΔflgL)) (UniProt Q75N27).
T2 sequence: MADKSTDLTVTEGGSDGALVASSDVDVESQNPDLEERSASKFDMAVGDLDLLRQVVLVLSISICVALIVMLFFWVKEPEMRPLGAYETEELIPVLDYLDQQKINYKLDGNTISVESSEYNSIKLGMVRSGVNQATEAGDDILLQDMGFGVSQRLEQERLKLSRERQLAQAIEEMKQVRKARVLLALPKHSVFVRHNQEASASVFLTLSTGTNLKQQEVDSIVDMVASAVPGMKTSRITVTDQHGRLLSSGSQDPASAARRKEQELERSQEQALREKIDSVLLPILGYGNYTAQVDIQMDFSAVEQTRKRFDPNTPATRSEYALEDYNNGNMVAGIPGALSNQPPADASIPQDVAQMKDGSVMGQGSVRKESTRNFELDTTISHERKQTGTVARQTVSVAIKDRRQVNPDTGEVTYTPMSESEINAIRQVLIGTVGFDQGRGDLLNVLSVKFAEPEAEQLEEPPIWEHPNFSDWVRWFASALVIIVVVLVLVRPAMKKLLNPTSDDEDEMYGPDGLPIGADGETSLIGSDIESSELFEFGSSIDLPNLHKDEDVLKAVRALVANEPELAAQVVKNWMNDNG

For test [3], the target named is FlgF (Vibrio alginolyticus (endogenous in strain KK148 ΔflgL)).

Results are given in words; binding and its absence hold for the method and conditions named. Binding can be weak; no strength is given.

As to FlrP, the binding entry in test [1] and in test [2] was “binds” in each case. For FlgG, the binding result in test [1] and in test [2] was “binds” each time. FlgB: the binding entry in test [2] is “binds”. As to FliE, in test [2], the binding result is “binds”.

B1: FliF (natural protein, UniProt Q75N27 1-580, looked up)
chain: T2 sequence
notes: FliF, MS ring subunit of the polar flagellar motor, Vibrio alginolyticus; domains RBM2, RBM3, β-collar; extended peptide loops LA, LB, LC; 34 subunits form the MS ring; 23 RBM2 domains seen in the RBM2 subring; also called MS ring protein; FliF peptide loops LA, LB, LC; source: endogenous, purified within the polar flagellar motor-hook complex from V. alginolyticus KK148 ΔflgL
On to B1, for which, in test [3], the binding entry is “binds”.
